# Results taken from the supplement of paper PMC12889115.
# The other results are listed elsewhere or left out. Values are raw readings; no control value is given beside them.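 Primary screen: polymyxin B was added at a level permeabilizing Salmonella outer membranes while sparing inner membranes. DMSO wells, both with and without polymyxin B, established maximum growth. Plate-to-plate variation meant each plate was ranked on its own, and the lowest-OD600 compounds were selected as hits.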
# Tested on: Salmonella enterica serovar Typhimurium SL1344
# Experiment: bacterial growth OD600 after 18 h with compound and polymyxin B; higher = more bacterial growth (less inhibition)
# Settings: 50 µM, Mueller-Hinton broth
SMILES,bacterial growth OD600 (polymyxin B 1 µg/mL),bacterial growth OD600 (polymyxin B 0.75 µg/mL)
CCOC(=O)C1(Cc2ccc(F)cc2)CCCN(C(=O)c2ccc(OC)c(OC)c2)C1 (centres undefined),1.02,–
CC(C)c1csc(CNC2CCCN(c3ncccn3)C2)n1 (centres undefined),1.09,–
CCn1cc(C(=O)N2CCc3[nH]nc(-c4ccccc4F)c3C2)cn1,–,0.854
O=C(NCC1CCCN(C(=O)C2(c3ccccc3)CC2)C1)c1ccc(F)cc1 (centres undefined),0.846,–
Cc1nonc1C1CCCN1c1ccc(-c2nc(C3CC3)no2)cn1 (centres undefined),0.008,–
COc1ccc(CN2CCC(n3nccc3NC(=O)Cc3ccccc3)CC2)cc1OC,–,0.816
COc1ccc(CNC(=O)CCC2CCCN(Cc3cccc(C)n3)C2)c(OC)c1 (centres undefined),–,0.884
COc1cccc(NC(=O)CCC2CCN(Cc3nccs3)CC2)c1,0.823,–
COc1cccc(-c2nn(-c3ccccc3)cc2CN2CCCC(CN3CCCC3=O)C2)c1 (centres undefined),0.88,–
Cc1ncc2c(c1CNC(=O)Cc1ccsc1)CCN(C(=O)Cc1c(F)ccc(F)c1F)C2,–,0.824
CCn1cc(CN2CCCC(CNC(=O)C3(c4ccc(Cl)cc4)CC3)C2)cn1 (centres undefined),0.903,–
Cc1ncc(CN2CCC3(CCCN(Cc4ccc(C(C)C)cc4)C3=O)C2)cn1 (centres undefined),0.846,–
CC(C)CC(=O)C(=O)N1CCC(N2CCC(C(=O)NCC3CCCO3)CC2)CC1 (centres undefined),1.04,–
CCN(CC)CCN(CC)C(=O)Cn1nnnc1CN(C)C(C)C,–,0.827
Cc1ccccc1CN1C[C@@H]2C[C@@H](c3cnn(C)c3C)N3CCC[C@@]23C1=O,–,0.789
Cc1ccc2[nH]nc(C(=O)NCc3nc(-c4ccc(NC(=O)Cc5ccccc5)cc4)oc3C)c2c1,–,0.836
COc1cccc(CN2CCN(C(=O)CCC3(Cc4ccc(F)cc4)CCC(=O)N3)CC2=O)c1 (centres undefined),–,0.816
CN(Cc1cnc(S(=O)(=O)CC2CC2)n1CC1CCCCC1)C1CCOC1 (centres undefined),0.868,–
CCOC(=O)C1(CCc2ccccc2)CCCN(C(=O)c2cnccn2)C1 (centres undefined),0.917,–

# In a second layout: entries from further up.
SMILES | bacterial growth OD600 (polymyxin B 1 µg/mL) | bacterial growth OD600 (polymyxin B 0.75 µg/mL)
CC(C)c1csc(CNC2CCCN(c3ncccn3)C2)n1 (centres undefined) | 1.09 | –
CCn1cc(CN2CCCC(CNC(=O)C3(c4ccc(Cl)cc4)CC3)C2)cn1 (centres undefined) | 0.903 | –
